Test results: paper PMC3836728
These are yes or no findings as the source states them, for the method shown. Binding seen in cells or lysates may run through a third protein. Some entries that bind do so weakly or less than the wild type.

By UniProt entry, the sequences of proteins in these tests, tags left out. Where a name states a change or a piece, a line headed by the entry shows the natural chain unless it says otherwise. Residues count along the entry.
UniProt Q9QR71: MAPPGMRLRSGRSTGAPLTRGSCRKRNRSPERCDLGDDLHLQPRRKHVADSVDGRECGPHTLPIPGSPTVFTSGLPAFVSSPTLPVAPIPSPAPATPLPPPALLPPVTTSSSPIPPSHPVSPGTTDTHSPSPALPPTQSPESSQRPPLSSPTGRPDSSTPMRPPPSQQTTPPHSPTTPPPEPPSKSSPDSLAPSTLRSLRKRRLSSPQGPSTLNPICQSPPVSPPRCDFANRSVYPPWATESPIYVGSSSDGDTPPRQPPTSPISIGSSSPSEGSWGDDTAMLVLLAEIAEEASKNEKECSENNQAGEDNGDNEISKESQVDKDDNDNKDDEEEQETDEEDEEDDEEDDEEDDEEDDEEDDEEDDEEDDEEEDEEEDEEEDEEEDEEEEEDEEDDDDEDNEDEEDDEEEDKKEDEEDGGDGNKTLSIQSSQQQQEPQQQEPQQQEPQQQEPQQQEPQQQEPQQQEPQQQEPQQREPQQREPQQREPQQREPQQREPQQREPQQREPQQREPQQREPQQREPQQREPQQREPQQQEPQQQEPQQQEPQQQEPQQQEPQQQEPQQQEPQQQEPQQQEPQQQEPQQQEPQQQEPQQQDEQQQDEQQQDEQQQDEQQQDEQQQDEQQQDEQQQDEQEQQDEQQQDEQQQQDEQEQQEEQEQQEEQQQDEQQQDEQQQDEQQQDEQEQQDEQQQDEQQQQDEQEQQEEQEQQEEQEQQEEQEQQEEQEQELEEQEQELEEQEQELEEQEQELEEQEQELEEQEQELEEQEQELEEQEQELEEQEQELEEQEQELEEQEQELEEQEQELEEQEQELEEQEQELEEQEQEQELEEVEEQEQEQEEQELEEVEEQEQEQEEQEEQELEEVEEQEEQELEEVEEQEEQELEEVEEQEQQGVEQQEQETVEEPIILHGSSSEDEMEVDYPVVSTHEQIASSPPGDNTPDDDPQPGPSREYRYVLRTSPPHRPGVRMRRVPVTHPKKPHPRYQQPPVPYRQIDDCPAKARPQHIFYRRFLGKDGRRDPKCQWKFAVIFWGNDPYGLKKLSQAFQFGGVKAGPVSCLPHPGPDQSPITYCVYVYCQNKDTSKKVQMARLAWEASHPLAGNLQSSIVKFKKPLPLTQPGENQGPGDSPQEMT
GST-LN(1–329) (Kaposi's sarcoma-associated herpesvirus (KSHV)): residues 1-329 of Q9QR71
UniProt P61956: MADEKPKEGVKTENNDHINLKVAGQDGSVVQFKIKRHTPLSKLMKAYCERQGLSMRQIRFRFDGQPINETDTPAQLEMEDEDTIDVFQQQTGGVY
UniProt Q13263: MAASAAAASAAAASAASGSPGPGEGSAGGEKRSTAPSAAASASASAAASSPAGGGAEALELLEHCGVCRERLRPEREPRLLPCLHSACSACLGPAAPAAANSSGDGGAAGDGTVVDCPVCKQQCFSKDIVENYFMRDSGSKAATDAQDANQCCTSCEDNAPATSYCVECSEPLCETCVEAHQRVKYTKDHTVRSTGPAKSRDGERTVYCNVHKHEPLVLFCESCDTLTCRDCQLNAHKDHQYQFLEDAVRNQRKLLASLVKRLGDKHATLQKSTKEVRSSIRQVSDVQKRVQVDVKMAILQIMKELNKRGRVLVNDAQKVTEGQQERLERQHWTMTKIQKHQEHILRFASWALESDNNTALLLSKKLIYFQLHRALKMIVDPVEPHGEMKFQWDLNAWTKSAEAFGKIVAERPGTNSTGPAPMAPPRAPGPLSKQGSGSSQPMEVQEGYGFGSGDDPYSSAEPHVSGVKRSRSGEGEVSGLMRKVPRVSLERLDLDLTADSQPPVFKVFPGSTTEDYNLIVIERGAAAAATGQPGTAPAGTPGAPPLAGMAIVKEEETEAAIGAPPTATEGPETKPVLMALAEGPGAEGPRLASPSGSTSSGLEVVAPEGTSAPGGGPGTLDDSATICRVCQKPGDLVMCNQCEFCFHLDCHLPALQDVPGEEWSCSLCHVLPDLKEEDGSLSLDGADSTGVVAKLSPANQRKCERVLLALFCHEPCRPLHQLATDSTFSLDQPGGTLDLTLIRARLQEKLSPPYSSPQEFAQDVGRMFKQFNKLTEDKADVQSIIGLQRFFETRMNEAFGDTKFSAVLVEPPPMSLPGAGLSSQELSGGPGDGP
UniProt Q09472: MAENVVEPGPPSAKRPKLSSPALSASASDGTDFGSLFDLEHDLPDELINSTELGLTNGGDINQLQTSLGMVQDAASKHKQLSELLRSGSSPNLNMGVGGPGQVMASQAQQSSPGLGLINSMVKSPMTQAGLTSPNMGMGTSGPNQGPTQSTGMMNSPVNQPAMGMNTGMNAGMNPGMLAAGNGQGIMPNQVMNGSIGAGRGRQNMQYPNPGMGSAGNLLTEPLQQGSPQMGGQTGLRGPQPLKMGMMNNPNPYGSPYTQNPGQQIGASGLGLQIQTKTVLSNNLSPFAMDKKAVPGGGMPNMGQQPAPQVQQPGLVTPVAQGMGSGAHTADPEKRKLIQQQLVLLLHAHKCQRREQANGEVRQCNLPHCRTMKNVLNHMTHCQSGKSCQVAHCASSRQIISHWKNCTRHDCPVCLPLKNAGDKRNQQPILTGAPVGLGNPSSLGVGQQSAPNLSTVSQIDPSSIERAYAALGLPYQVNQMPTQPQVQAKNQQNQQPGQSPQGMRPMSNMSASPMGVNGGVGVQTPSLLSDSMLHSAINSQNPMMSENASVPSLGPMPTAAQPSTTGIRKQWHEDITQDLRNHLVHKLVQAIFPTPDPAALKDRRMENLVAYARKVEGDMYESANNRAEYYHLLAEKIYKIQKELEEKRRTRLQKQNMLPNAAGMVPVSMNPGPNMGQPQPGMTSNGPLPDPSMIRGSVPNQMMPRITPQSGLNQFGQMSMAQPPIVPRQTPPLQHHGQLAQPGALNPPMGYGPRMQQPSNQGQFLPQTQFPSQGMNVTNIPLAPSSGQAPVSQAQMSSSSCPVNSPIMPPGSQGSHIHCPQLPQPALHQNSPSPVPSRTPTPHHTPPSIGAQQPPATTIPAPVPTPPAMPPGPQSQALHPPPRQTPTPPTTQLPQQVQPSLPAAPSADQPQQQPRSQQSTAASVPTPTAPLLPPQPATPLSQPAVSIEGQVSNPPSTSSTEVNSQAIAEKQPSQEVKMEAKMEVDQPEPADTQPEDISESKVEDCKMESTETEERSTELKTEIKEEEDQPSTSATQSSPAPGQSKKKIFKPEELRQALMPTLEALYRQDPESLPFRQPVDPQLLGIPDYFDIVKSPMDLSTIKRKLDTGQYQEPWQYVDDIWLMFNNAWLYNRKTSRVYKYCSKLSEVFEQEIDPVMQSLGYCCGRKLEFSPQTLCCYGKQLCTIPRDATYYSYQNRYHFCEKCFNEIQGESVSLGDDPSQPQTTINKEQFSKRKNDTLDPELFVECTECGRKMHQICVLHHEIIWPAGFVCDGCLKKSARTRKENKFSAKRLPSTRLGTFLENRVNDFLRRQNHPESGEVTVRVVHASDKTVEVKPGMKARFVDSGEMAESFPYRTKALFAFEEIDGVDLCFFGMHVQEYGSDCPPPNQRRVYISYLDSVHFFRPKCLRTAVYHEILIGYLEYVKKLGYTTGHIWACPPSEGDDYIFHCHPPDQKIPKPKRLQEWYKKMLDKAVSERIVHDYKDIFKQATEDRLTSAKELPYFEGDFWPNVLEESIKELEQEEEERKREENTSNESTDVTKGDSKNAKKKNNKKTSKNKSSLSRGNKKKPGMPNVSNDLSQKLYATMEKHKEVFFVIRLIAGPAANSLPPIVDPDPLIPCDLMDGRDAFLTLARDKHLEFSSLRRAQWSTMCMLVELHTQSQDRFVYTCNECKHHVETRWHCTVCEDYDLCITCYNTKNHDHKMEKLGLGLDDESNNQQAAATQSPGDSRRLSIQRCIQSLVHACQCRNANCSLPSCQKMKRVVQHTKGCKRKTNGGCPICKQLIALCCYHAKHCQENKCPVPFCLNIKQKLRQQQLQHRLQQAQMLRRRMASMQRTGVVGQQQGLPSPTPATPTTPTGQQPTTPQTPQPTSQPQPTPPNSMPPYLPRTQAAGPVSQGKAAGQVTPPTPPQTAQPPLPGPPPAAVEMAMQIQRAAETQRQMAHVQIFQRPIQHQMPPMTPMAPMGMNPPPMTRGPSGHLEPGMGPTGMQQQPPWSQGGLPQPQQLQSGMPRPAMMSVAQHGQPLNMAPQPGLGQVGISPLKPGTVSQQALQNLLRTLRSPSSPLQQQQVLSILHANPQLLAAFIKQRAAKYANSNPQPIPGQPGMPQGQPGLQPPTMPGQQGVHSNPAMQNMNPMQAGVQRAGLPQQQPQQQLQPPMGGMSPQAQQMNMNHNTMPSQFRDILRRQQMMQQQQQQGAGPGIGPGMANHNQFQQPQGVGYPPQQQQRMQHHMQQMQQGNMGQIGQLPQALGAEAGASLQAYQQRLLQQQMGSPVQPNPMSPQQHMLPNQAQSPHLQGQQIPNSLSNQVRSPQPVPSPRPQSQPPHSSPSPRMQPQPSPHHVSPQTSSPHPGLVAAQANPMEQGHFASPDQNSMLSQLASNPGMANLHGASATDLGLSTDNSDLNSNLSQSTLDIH

Assays:
[1] = molecular target: GST-LN(1–329) (Kaposi's sarcoma-associated herpesvirus (KSHV)) (UniProt Q9QR71); assay: pull-down; GST fusion of LANA 1–329 (WT or ΔSIM) with nuclear extracts, western blot with specific antibodies; data not shown; only the target purified
[2] = molecular target: His-SUMO-2 recombinant protein (UniProt P61956); assay: pull-down; 35S-labeled in vitro-translated LANA incubated with His-SUMO-1 or His-SUMO-2 on Nickel-agarose (Ni-NTA) beads, 3 hrs at 4°C in NETN binding buffer; autoradiography; only the target purified
[3] = molecular target: full length LANA with myc tag (Kaposi's sarcoma-associated herpesvirus (KSHV)) (UniProt Q9QR71); assay: co-IP; HEK293 co-transfected with FLAG-KAP1 (wild type or lysine mutants) and myc-tagged LANA in the presence of HA-SUMO-1, HA-SUMO-2 or vector alone

| Substance | binding [1] | further results |
| --- | --- | --- |
| CREB-binding protein (CBP) (from UniProt Q92793 1-2442) | binds | – |
| KAP1 (also known as TIF1β or TRIM28) (from UniProt Q13263 1-835) | binds | – |
| in vitro-translated, radiolabeled wild type (WT) full length LANA (from UniProt Q9QR71 1-1129) | – | binding [2]: binds |
| p300 (from UniProt Q09472 1-2414) | binds | – |
| poly-SUMO1 modified FLAG-KAP1 (wild type) (from UniProt Q13263 1-835; P63165 1-97) (complex) | – | binding [3]: no binding |
